Results: PubChem BioAssay AID328 (DTP/NCI, 2004)
The list shows only some results of the screen, not a fair sample: it gathers tests that were run many times, whatever their T/C, doses with no T/C, and many T/C values between a quarter and a half above the control. Further doses and runs are listed elsewhere. T/C: endpoint of the treated group in % of that of the vehicle group. Some entries give survivors of the animals treated and no T/C: the source files T/C as zero there, which appears to mark a toxic dose or a test without result, not a measured value. Some doses without a T/C left all or most animals alive at the check, yet need not have been tolerated: the source hardly ever lists a survival T/C far under the control, and the zero likely stands for such cases as well. Counts of survivors are from the toxicity check (mostly the fifth day) where no day follows; animals may have died later. Schedule codes are those of the source, taken here to give the interval after Q, in days (D) or hours (H), and the number of doses after X. Where survival is the endpoint, this PubChem deposit counts one and a half times the control or more as active, and values a quarter to a half above the control carry no call in these data; other NCI protocols may use other cut-offs. Some doses were run more than once; their values stand side by side, smallest first. Some T/C values carry the count of animals alive at the toxicity check (mostly the fifth day); without a count, all were alive then.

Tested on: BDF1 mice, P388 leukemia ip, median survival T/C
Assay: NCI In Vivo Anticancer Drug Screen. Data for tumor model P388 Leukemia (intraperitoneal) in B6D2F1 (BDF1) mice
Settings: T/C endpoint: median survival time, higher T/C = longer survival
Procedure, shortened: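 Compound-treated tumour-bearing mice were compared with vehicle-treated controls. Survival was recorded, and the value is the treated-group measurement divided by the control-group measurement (T/C).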

[1] = dose: 400.0 mg/kg/injection, schedule: Q04DX003 (ip), vehicle: saline
[2] = dose: 25.0 mg/kg/injection, schedule: Q01DX009 (ip), vehicle: saline
[3] = dose: 400.0 mg/kg/injection, schedule: Q01DX009 (ip), vehicle: saline with Tween-80
[4] = dose: 100.0 mg/kg/injection, schedule: Q04DX003 (ip), vehicle: water
[5] = dose: 25.0 mg/kg/injection, schedule: Q01DX010 (ip), vehicle: saline
[6] = dose: 50.0 mg/kg/injection, schedule: Q01DX010 (ip), vehicle: saline
[7] = dose: 200.0 mg/kg/injection, schedule: Q01DX009 (ip), vehicle: saline with Tween-80
[8] = dose: 400.0 mg/kg/injection, schedule: Q04DX003 (ip), vehicle: saline with Tween-80
[9] = dose: 100.0 mg/kg/injection, schedule: Q01DX009 (ip), vehicle: saline with Tween-80

## CC(=O)CC(C)=O.CC(=O)CC(C)=O.CC(=O)CC(C)=O.[Ga]
dose: 4.0 mg/kg/injection, schedule: Q01DX009 (ip), vehicle: other
  survivor count: 6 of 6
dose: 8.0 mg/kg/injection, schedule: Q01DX009 (ip), vehicle: other
  survivor count: 6 of 6
dose: 16.0 mg/kg/injection, schedule: Q01DX009 (ip), vehicle: other
  survivor count: 6 of 6
dose: 32.0 mg/kg/injection, schedule: Q01DX009 (ip), vehicle: other
  survivor count: 6 of 6
dose: 100.0 mg/kg/injection, schedule: Q04DX003 (ip), vehicle: saline
  survivor count: 4 of 6
dose: 200.0 mg/kg/injection, schedule: Q04DX003 (ip), vehicle: saline
  survivor count: 6 of 6
[1]
  survivor count: 6 of 6

## CN=C(N)NCCCCCCCCNC(N)=NC
[2]
  survivor count: 2 of 6
dose: 50.0 mg/kg/injection, schedule: Q01DX009 (ip), vehicle: saline
  survivor count: 0 of 6

## c1ccc(C2OC2c2ccccc2)cc1 (stereo not given)
dose: 200.0 mg/kg/injection, schedule: Q04DX003 (ip), vehicle: Klucel (hydroxypropylcellulose) (HPC)
  survivor count: 5 of 6

## COc1ccc(CN(CCOC(=O)c2ccc(OC)cc2)CCN(CCOC(=O)c2ccc(OC)cc2)Cc2ccc(OC)cc2)cc1
dose: 50.0 mg/kg/injection, schedule: Q04DX003 (ip), vehicle: water, evaluated on day 20
  T/C: 90 % of control
dose: 50.0 mg/kg/injection, schedule: Q04DX003 (ip), vehicle: water, evaluated on day 30
  T/C: 93 and 100 % of control
dose: 50.0 mg/kg/injection, schedule: Q04DX003 (ip), vehicle: water, evaluated on day 31
  T/C: 95 % of control
dose: 100.0 mg/kg/injection, schedule: Q01DX009 (ip), vehicle: water
  T/C: 127 % of control
dose: 100.0 mg/kg/injection, schedule: Q04DX003 (ip), vehicle: water, evaluated on day 20
  T/C: 86 % of control
dose: 100.0 mg/kg/injection, schedule: Q04DX003 (ip), vehicle: water, evaluated on day 30
  T/C: 100 and 101 % of control
dose: 100.0 mg/kg/injection, schedule: Q04DX003 (ip), vehicle: water, evaluated on day 31
  T/C: 128 % of control
dose: 200.0 mg/kg/injection, schedule: Q04DX003 (ip), vehicle: water, evaluated on day 20
  T/C: 108 % of control [5 of 6 alive]
dose: 200.0 mg/kg/injection, schedule: Q04DX003 (ip), vehicle: water, evaluated on day 30
  T/C: 97 and 105 % of control
dose: 200.0 mg/kg/injection, schedule: Q04DX003 (ip), vehicle: water, evaluated on day 31
  T/C: 266 % of control
dose: 400.0 mg/kg/injection, schedule: Q04DX003 (ip), vehicle: water, evaluated on day 20
  T/C: 88 % of control
dose: 400.0 mg/kg/injection, schedule: Q04DX003 (ip), vehicle: water, evaluated on day 30
  T/C: 97 and 98 % of control
dose: 400.0 mg/kg/injection, schedule: Q04DX003 (ip), vehicle: water, evaluated on day 31
  T/C: 95 % of control

## O=[N+]([O-])/C=C/c1c(Cl)cccc1Cl
dose: 100.0 mg/kg/injection, schedule: Q04DX003 (ip), vehicle: other
  survivor count: 5 of 6
dose: 200.0 mg/kg/injection, schedule: Q04DX003 (ip), vehicle: other
  survivor count: 0 of 6
dose: 400.0 mg/kg/injection, schedule: Q04DX003 (ip), vehicle: other
  survivor count: 0 of 6

## c1ccc(OCC2CO2)c(OCC2CO2)c1 (stereo not given)
dose: 30.0 mg/kg/injection, schedule: Q01DX005 (ip), vehicle: saline with Tween-80
  T/C: 135 % of control

## CN(C)C(=O)c1cccc(NC(=O)Oc2ccccc2)c1
[3]
  survivor count: 6 of 6

## NC(N)=Nc1ccc(C(=O)Oc2ccc(OC(=O)c3cccc(N=C(N)N)c3)cc2)cc1
[4]
  survivor count: 6 of 6
dose: 200.0 mg/kg/injection, schedule: Q04DX003 (ip), vehicle: water
  survivor count: 6 of 6
dose: 400.0 mg/kg/injection, schedule: Q04DX003 (ip), vehicle: water
  survivor count: 5 of 6

## BrCCCC[P+](c1ccccc1)(c1ccccc1)c1ccccc1
[5]
  survivor count: 6 of 6
[6]
  survivor count: 0 of 6

## OCc1ccn2c1[C@@H](O)CC2
[5]
  T/C: 147 % of control
[6]
  T/C: 133 % of control
dose: 100.0 mg/kg/injection, schedule: Q01DX010 (ip), vehicle: saline
  survivor count: 6 of 6
dose: 200.0 mg/kg/injection, schedule: Q01DX010 (ip), vehicle: saline
  survivor count: 3 of 6

## O=C(O)C(CCO)C(=O)C(F)(F)F (stereo not given)
dose: 200.0 mg/kg/injection, schedule: Q01DX009 (ip), vehicle: other
  survivor count: 2 of 6
dose: 400.0 mg/kg/injection, schedule: Q01DX009 (ip), vehicle: other
  survivor count: 0 of 6

## NC(Cn1ccc(=O)c(O)c1)C(=O)O (stereo not given)
dose: 800.0 mg/kg/injection, schedule: Q01DX009 (ip), vehicle: saline
  T/C: 133 % of control [5 of 6 alive]
dose: 1200.0 mg/kg/injection, schedule: Q01DX009 (ip), vehicle: saline
  survivor count: 1 of 6
dose: 1600.0 mg/kg/injection, schedule: Q01DX009 (ip), vehicle: saline
  survivor count: 0 of 6

## CCOC(=O)C(C(=O)OCC)=C(C)OCC
[7]
  survivor count: 5 of 6
[8]
  survivor count: 3 of 6

## NC(N)=NC(N)=Nc1ccc(Cl)c(Cl)c1
[9]
  survivor count: 6 of 6
[7]
  survivor count: 3 of 6

## CCCCCCC(Nc1ncnc(Cl)c1N)C(C)O (stereo not given)
dose: 50.0 mg/kg/injection, schedule: Q01DX009 (ip), vehicle: saline with Tween-80
  survivor count: 3 of 6
[9]
  survivor count: 0 of 6
[7]
  survivor count: 0 of 6

## Cc1ccc(NCC2(/N=C/c3ccccc3)OC(CO)C(O)C2O)cc1 (stereo not given)
dose: 100.0 mg/kg/injection, schedule: Q01DX009 (ip), vehicle: Klucel (hydroxypropylcellulose) (HPC)
  T/C: 129 % of control [5 of 6 alive]

## CCOC(=O)C(Cc1ccc(N(CCCl)CCCl)cc1)NC(=O)C(Cc1ccccc1)NC=O (stereo not given)
dose: 25.0 mg/kg/injection, schedule: Q04DX003 (ip), vehicle: saline with Tween-80
  T/C: 140 % of control
[7]
  survivor count: 6 of 6

## NC(CCCC(=O)O)P(=O)(O)O (stereo not given)
dose: 400.0 mg/kg/injection, schedule: Q01DX009 (ip), vehicle: Klucel (hydroxypropylcellulose) (HPC)
  survivor count: 4 of 6

## CCCCCCCCOB(OCCCCCCCC)OCCCCCCCC
dose: 200.0 mg/kg/injection, schedule: Q04DX003 (ip), vehicle: saline with Tween-80
  survivor count: 3 of 6
[8]
  survivor count: 5 of 6

## COC(C)c1cnccc1C(C)c1cc2ccccc2[nH]1 (stereo not given)
dose: 400.0 mg/kg/injection, schedule: Q01DX001 (ip), vehicle: saline with Tween-80
  survivor count: 0 of 6

## O=NN(CCCl)C(=O)Nc1ccc(CCO)cc1
dose: 0.31 mg/kg/injection, schedule: Q01DX009 (ip), vehicle: Klucel (hydroxypropylcellulose) (HPC)
  T/C: 127 % of control
dose: 0.47 mg/kg/injection, schedule: Q01DX009 (ip), vehicle: Klucel (hydroxypropylcellulose) (HPC)
  T/C: 140 % of control
dose: 0.72 mg/kg/injection, schedule: Q01DX009 (ip), vehicle: Klucel (hydroxypropylcellulose) (HPC)
  T/C: 131 % of control
dose: 1.0 mg/kg/injection, schedule: Q04DX003 (ip), vehicle: saline
  T/C: 130 % of control
[2]
  survivor count: 6 of 6
dose: 25.0 mg/kg/injection, schedule: Q04DX003 (ip), vehicle: saline + alcohol
  survivor count: 6 of 6
dose: 50.0 mg/kg/injection, schedule: Q04DX003 (ip), vehicle: saline sonified
  survivor count: 4 of 6
dose: 100.0 mg/kg/injection, schedule: Q04DX003 (ip), vehicle: saline sonified
  survivor count: 4 of 6

## O=C1CC(c2ccc(Cl)cc2)NC(c2ccc(Cl)cc2)C1 (stereo not given)
[7]
  T/C: 131 % of control [5 of 6 alive]
dose: 300.0 mg/kg/injection, schedule: Q01DX009 (ip), vehicle: saline with Tween-80
  survivor count: 3 of 6
[3]
  T/C: 128 % of control [5 of 6 alive]

## C[N+](C)(C)c1ncnc2c1ncn2C1CCCO1 (stereo not given)
dose: 200.0 mg/kg/injection, schedule: Q01DX009 (ip), vehicle: saline
  survivor count: 2 of 6
[1]
  survivor count: 1 of 6

## O=c1cc(N=Nc2ccc(O)cc2)[nH]c(=O)[nH]1
[4]
  T/C: 127 % of control [5 of 6 alive]
